Patent US20020198510A1, “Method for nasal application of a medicinal substance” (priority 2001, published 2002)
At least one structure is not confirmed: it was looked up by name or label, or the drawing left a doubt.

Assay: Evans Blue Dye distribution after administration into the nose of mice
Assay type: in vivo
Conditions: 60 min to sacrifice
Method: To show the distribution of liquid administered through the nose, Evans Blue Dye (0.3%) was administered through a micropipette tip into the nose of mice and chinchillas at various doses, at various levels of sedation or anesthesia, and with the animals in various positions.

[1] = Dye 10 μl single dose, Supine/Supine, anesthesia 200 μl (heavy)
[2] = Dye 10 μl single dose, Upright/Not held, 0 μl (Alert)
[3] = Dye 10 μl single dose, Upright/Not held, anesthesia 200 μl (heavy)
[4] = Dye 20 μl single dose, Supine/Supine, anesthesia 200 μl (heavy)
[5] = Dye 20 μl single dose, Upright/Not held, anesthesia 200 μl (heavy)
[6] = Dye 20 μl, 2 μl/nare at 2 min interval, Supine/Supine, anesthesia 200 μl (heavy)
[7] = Dye 20 μl, 2 μl/nare at 5 min interval, Supine/Supine, anesthesia 200 μl (heavy)
[8] = Dye 20 μl, 2 μl/nare at t = 0, 2, 7, 9 and 11 min, Supine/Supine, anesthesia 200 μl (heavy)
[9] = Dye 30 μl single dose, Supine/Supine, anesthesia 200 μl (heavy)
[10] = Dye 30 μl, 1 drop/5 sec interval, Upright/Not held, anesthesia 200 μl (heavy)
[11] = Dye 30 μl, 2 μl/nare at 5 min interval, Supine/Supine, anesthesia 200 μl (Mod*)
[12] = Dye 30 μl, 2 μl/nare at 5 min interval, Supine/Supine, anesthesia 200 μl (heavy)
[13] = Dye 30 μl, 2 μl/nare at 5 min interval, Supine/Supine, anesthesia 350 μl (heavy)
[14] = Dye 30 μl, 2 μl/nare at 5 min interval, Supine/Supine, anesthesia 400 μl (heavy)
[15] = Dye 40 μl, 2 μl/nare at 5 min interval, Supine/Supine, anesthesia 200 μl (heavy)
[16] = Dye 50 μl, 5 μl/nare at 30 sec interval, Upright/Not held, anesthesia 120 μl (Mod)

Cc1cc(-c2ccc(/N=N/c3ccc4c(S(=O)(=O)[O-])cc(S(=O)(=O)[O-])c(N)c4c3O)c(C)c2)ccc1/N=N/c1ccc2c(S(=O)(=O)[O-])cc(S(=O)(=O)[O-])c(N)c2c1O.[Na+].[Na+].[Na+].[Na+] [Dye, Evans Blue Dye]
−: Dye in Intestine [1] | Dye in Lung [1] | Dye in Oral Cavity [1] | Dye in Stomach [1] | Dye in Lung [2] | Dye in Nose Skin [2] | Dye in Intestine [3] | Dye in Lung [3] | Dye in Esophagus Lower [4] | Dye in Intestine [4] | Dye in Lung [4] | Dye in Stomach [4] | Dye in Intestine [5] | Dye in Lung [5] | Dye in Intestine [6] | Dye in Lung [6] | Dye in Esophagus Lower [7] | Dye in Intestine [7] | Dye in Lung [7] | Dye in Stomach [7] | Dye in Intestine [8] | Dye in Lung [8] | Dye in Oral Cavity [8] | Dye in Stomach [8] | Dye in Nose Skin (Dye 30 μl single dose, Prone/Not held, 0 μl (Alert)) | Dye in Intestine [9] | Dye in Lung [9] | Dye in Lung (Dye 30 μl single dose, Upright/Not held, 0 μl (Alert)) | Dye in Intestine (Dye 30 μl single dose, Upright/Not held, anesthesia 120 μl (Mod)) | Dye in Intestine (Dye 30 μl single dose, Upright/Not held, anesthesia 200 μl (heavy)) | Dye in Intestine [10] | Dye in Lung [10] | Dye in Intestine [11] | Dye in Lung [11] | Dye in Esophagus Lower [12] | Dye in Intestine [12] | Dye in Lung [12] | Dye in Stomach [12] | Dye in Esophagus Lower [13] | Dye in Intestine [13] | Dye in Lung [13] | Dye in Stomach [13] | Dye in Trachea Lower [13] | Dye in Intestine [14] | Dye in Lung [14] | Dye in Stomach [14] | Dye in Intestine (Dye 30 μl, 5 μl/nare at 10 min interval, Supine/Supine, anesthesia 200 μl (heavy)) | Dye in Intestine [15] | Dye in Lung [15] | Dye in Intestine (Dye 50 μl single dose, Upright/Not held, anesthesia 200 μl (heavy)) | Dye in Intestine [16] | Dye in Lung [16]
